According to PubChem BioAssay AID504444 (National Center for Advancing Translational Sciences (NCATS), 2011):
Among all 360,000 compounds or so, about 7,500 (2.1%) were called active. The shares of active, inactive and inconclusive entries below differ from those in the screen. The call rests on the fitted dose curve; in most records, active means well fitted inhibition curve with a large enough effect; inconclusive means small, poorly fitted or top-dose-only effect, or effect the other way; inactive means flat fitted curve, though single readings scatter. Potencies beside an inconclusive call are fits to weak or partial responses and may not hold up.

Assay: Nrf2 qHTS screen for inhibitors; further: nearly all actives have a fitted effect of over 60% in size
Details: A549 ARE-Fluc reporter, luciferase luminescence, 18-24 h; series mostly up to 46 µM
Procedure, shortened: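 A549 ARE_Fluc cells, 5000/well, 5% FBS OPTI-MEM; compounds in dose-response, 18-24 h at 37 °C/5% CO2; CellTiter-Fluor viability read (Ex 405/Em 525), then BugLite luciferase luminescence = Nrf2 activity.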
Potency means the concentration at half of the fitted maximal effect.

Row | Structure (SMILES) | Potency
1 | CC(C)(C)OC(=O)N1CCC(c2c(C(=O)NCc3ccco3)cnn2-c2ccccc2Cl)CC1 | inconclusive: 29.1 µM [falling, partial curve, poor fit]
2 | Cc1nn(CCCC(=O)NCc2ccccc2)c(=O)c2cc3sccc3n12 | inconclusive: 0.82 µM [falling, partial curve, poor fit]
3 | CC(=O)N1CCC(C(=O)N2CCN(S(=O)(=O)c3ccc(Cl)s3)CC2)CC1 | inactive
4 | COc1ccc(C(C)=O)cc1CSc1nc2cc(C(=O)O)ccc2c(=O)n1Cc1ccccc1 | inactive
5 | CCN1C(=O)C(CC(=O)Nc2ccc(OC)cc2)N(CCc2ccc(OC)cc2)C1=S (stereo not drawn) | inconclusive: 23.1 µM [falling, single point]
6 | O=C(CNC(=O)C(c1ccccc1)c1ccccc1)N/N=C\c1ccc2c(c1)OCO2 | inconclusive: 32.6 µM [falling, single point]
7 | COc1cc2c[n+](C)c3c4ccccc4ccc3c2cc1OC | active: 16.4 µM
8 | CCOC(=O)N1CCC(NC(=O)COc2cc(=O)n(C)c3ccccc23)CC1 | inconclusive: 5.8 µM [falling, full curve]
9 | O=C(COC(=O)CSc1ccc2ccccc2c1)Nc1ccccc1OC(F)F | inconclusive: 13 µM [falling, partial curve, poor fit]
10 | COc1ccccc1N1C(=O)CC1(C#N)c1ccc(OCc2ccccc2)cc1 (stereo not drawn) | inconclusive: 32.6 µM [falling, single point]
11 | Oc1ccc(-c2nnc(Nc3cccc(O)c3)c3ccccc23)cc1 | inconclusive: 16.4 µM [falling, partial curve]
12 | CC1CCN(S(=O)(=O)c2ccc3c(c2)N(CC(=O)NCCCN2C(C)CCCC2C)C(=O)CO3)CC1 (stereo not drawn) | inactive
13 | COc1cc(/C=C/C(=O)O)ccc1OCc1ccccc1C#N | inconclusive: 9.2 µM [falling, partial curve]
14 | Cc1cc(C)cc(Nc2c(F)c(F)c(F)c(F)c2C(=O)O)c1 | inconclusive: 14.6 µM [falling, single point]
15 | Brc1ccc(-c2nc3ccccc3s2)s1 | inconclusive: 20.6 µM [activator, partial curve]
16 | O=C1CC(c2ccccc2)CC2=C1C=Nc1ccccc1N2 (stereo not drawn) | inconclusive: 32.6 µM [falling, single point]
17 | Cc1[nH]c2ccccc2c1/C=N/Nc1nc2ccccc2[nH]1 | inconclusive: 29.1 µM [falling, single point]
18 | C1CCN=C(Nc2nc3c(s2)CCCC3)CC1 | inconclusive: 25.9 µM [activator, partial curve]
19 | Cc1cc(NC(=O)c2c(C)noc2C)no1 | inactive
20 | COc1cc(C(=S)N2CCC(C)CC2)ccc1O | active: 18.4 µM
21 | O=C(Nc1ccc(N2CCOCC2)c2nonc12)C1CCCC1 | inconclusive: 29.1 µM [activator, single point]
22 | COc1ccccc1-c1nc(-c2ccccn2)no1 | inconclusive: 16.4 µM [falling, single point]
23 | CN(C(=O)c1ccc(NC(=O)Cc2cccc([N+](=O)[O-])c2)cc1)C1CCCC1 | inconclusive: 4.61 µM [falling, partial curve]
24 | Cc1ccc(NC(=O)c2sc(C)nc2C)c(C)c1 | inconclusive: 5.8 µM [activator, partial curve]
25 | O=S(=O)(NCc1cn2ccccc2n1)c1cccs1 | inconclusive: 13 µM [activator, partial curve]
26 | O=C(NCCc1ccccc1)c1c(F)cccc1F | inconclusive: 6.51 µM [activator, partial curve]
27 | O=C(CN1C2=NCCCN2c2ccccc21)c1ccc([N+](=O)[O-])cc1 | inconclusive: 25.9 µM [falling, partial curve, poor fit]
28 | O=[N+]([O-])c1cccc2c(N3CCCC3)ccnc12 | inconclusive: 20.6 µM [falling, single point]

3 entries from above, arranged by number of heavy atoms, rising:
Row | Structure (SMILES) | Potency
14 | Cc1cc(C)cc(Nc2c(F)c(F)c(F)c(F)c2C(=O)O)c1 | inconclusive: 14.6 µM [falling, single point]
7 | COc1cc2c[n+](C)c3c4ccccc4ccc3c2cc1OC | active: 16.4 µM
6 | O=C(CNC(=O)C(c1ccccc1)c1ccccc1)N/N=C\c1ccc2c(c1)OCO2 | inconclusive: 32.6 µM [falling, single point]
